# Measured values published in publication PMC4360946.
# Sequences of proteins named here, by UniProt entry; tags and fusion partners are left off.
# UniProt Q8VBX6: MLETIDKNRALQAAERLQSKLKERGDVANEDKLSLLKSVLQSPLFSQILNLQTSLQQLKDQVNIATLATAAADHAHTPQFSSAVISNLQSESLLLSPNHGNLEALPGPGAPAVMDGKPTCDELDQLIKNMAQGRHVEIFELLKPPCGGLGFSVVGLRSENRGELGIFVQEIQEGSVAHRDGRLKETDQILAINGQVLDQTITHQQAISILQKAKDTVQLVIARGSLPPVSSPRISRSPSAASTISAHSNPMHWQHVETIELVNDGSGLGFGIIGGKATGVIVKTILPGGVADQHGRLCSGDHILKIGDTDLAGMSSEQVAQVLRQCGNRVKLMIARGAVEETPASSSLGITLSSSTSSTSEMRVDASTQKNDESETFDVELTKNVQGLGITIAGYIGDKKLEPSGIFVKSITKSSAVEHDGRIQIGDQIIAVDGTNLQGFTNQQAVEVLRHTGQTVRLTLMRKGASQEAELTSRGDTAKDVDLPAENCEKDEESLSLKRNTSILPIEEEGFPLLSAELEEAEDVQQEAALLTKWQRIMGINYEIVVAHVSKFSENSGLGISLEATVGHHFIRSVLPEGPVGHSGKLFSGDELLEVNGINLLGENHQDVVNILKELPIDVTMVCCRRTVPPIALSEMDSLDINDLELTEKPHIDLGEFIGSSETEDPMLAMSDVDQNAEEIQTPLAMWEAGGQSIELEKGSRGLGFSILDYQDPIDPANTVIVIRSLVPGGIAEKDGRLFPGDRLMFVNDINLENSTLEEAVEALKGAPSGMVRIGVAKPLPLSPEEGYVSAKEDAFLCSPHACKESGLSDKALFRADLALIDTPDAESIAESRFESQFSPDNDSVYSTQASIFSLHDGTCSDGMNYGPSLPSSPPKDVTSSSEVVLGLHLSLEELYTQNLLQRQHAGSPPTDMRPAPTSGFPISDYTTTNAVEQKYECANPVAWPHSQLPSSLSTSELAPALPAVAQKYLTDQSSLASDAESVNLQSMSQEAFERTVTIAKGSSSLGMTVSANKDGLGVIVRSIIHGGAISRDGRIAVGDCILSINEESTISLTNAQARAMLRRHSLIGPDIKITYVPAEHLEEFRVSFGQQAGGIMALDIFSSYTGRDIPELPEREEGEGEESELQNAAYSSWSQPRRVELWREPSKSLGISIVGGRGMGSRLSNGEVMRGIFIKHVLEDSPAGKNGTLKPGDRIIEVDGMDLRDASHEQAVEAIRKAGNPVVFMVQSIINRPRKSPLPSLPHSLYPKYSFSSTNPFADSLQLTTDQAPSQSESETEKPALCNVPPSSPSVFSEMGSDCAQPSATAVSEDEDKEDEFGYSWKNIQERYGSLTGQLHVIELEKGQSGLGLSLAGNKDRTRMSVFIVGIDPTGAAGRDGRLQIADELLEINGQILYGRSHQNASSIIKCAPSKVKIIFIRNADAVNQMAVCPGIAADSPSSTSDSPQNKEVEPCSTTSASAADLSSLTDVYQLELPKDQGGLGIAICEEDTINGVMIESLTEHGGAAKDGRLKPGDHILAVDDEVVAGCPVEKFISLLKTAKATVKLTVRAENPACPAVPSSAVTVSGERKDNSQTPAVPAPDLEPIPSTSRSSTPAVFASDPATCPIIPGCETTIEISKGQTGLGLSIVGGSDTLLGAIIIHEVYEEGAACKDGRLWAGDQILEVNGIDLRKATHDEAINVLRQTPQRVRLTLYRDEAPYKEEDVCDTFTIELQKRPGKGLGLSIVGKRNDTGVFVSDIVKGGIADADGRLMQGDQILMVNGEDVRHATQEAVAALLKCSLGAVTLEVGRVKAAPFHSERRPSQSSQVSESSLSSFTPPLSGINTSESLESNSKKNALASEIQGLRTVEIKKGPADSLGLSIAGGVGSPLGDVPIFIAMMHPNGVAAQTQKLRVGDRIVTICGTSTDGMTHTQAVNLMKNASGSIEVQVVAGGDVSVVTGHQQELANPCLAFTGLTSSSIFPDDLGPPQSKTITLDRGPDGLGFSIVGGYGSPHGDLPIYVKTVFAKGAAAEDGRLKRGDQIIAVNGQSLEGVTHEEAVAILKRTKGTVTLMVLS
# Results are given in words; binding and its absence hold for the method and conditions named. In cells and extracts the contact can be indirect. Some results given as binding are weak or reduced against the parent protein; the word gives no strength. Tags and fused reporters may be left off the sequences shown.
# B1: SAP102, in mouse brain extract (protein, UniProt P70175 1-849)
# chain: MHKHQHCCKCPECYEVTRLAALRRLEPPGYGDWQVPDPYGPSGGNGASSGYGGYSSQTLPSQAGATPTPRTKAKLIPTGRDVGPVPPKPVPGKSTPKLNGSGPGWWPECTCTNRDWYEQASPAPLLVNPEALEPSLSVNGSDGMFKYEEIVLERGNSGLGFSIAGGIDNPHVPDDPGIFITKIIPGGAAAMDGRLGVNDCVLRVNEVDVSEVVHSRAVEALKEAGPVVRLVVRRRQPPPETIMEVNLLKGPKGLGFSIAGGIGNQHIPGDNSIYITKIIEGGAAQKDGRLQIGDRLLAVNNTNLQDVRHEEAVASLKNTSDMVYLKVAKPGSIHLNDMYAPPDYASTFTALADNHISHNSSLGYLGAVESKVTYPAPPQVPPTRYSPIPRHMLAEEDFTREPRKIILHKGSTGLGFNIVGGEDGEGIFVSFILAGGPADLSGELRRGDRILSVNGVNLRNATHEQAAAALKRAGQSVTIVAQYRPEEYSRFESKIHDLREQMMNSSMSSGSGSLRTSEKRSLYVRALFDYDRTRDSCLPSQGLSFSYGDILHVINASDDEWWQARLVTPHGESEQIGVIPSKKRVEKKERARLKTVKFHARTGMIESNRDFPGLSDDYYGAKNLKGVTSNTSDSESSSKGQEDAILSYEPVTRQEIHYARPVIILGPMKDRVNDDLISEFPHKFGSCVPHTTRPRRDNEVDGQDYHFVVSREQMEKDIQDNKFIEAGQFNDNLYGTSIQSVRAVAERGKHCILDVSGNAIKRLQQAQLYPIAIFIKPKSIEALMEMNRRQTYEQANKIFDKAMKLEQEFGEYFTAIVQGDSLEEIYNKIKQIIEDQSGHYIWVPSPEKL
# B2: GFP-SAP102 (protein, UniProt P70175 1-849)
# chain: B1 chain
# Columns and labels:
# [1] = molecular target: T1, GST-GPR85-C (C-terminal sequence of GPR85, …, fused to glutathione S-transferase) (human); assay: pull-down; GST fusion protein bound to Glutathione Sepharose beads, incubated with lysates of COS cells transfected with GFP-tagged proteins for 2 h at 4°C; washed three times with lysis buffer; eluted with 20 mM reduced glutathione; immunoblot with anti-GFP; only the target purified
# T1 sequence: SRLPREPYCVI
# [2] = molecular target: T1, GST-GPR85-C (C-terminal sequence of GPR85, …, fused to glutathione S-transferase) (human); assay: pull-down; GST fusion protein bound to Glutathione Sepharose beads, incubated with mouse brain lysate for 2 h at 4°C; washed three times with lysis buffer; eluted with 20 mM reduced glutathione in 50 mM Tris-HCl pH 8.0; immunoblot with specific antibodies; only the target purified
# [3] = molecular target: T1, GST-GPR85-C (C-terminal sequence of GPR85, …, fused to glutathione S-transferase) (human); assay: pull-down; GST fusion protein bound to Glutathione Sepharose beads, incubated with lysates of COS cells transfected with GFP-tagged proteins for 2 h at 4°C; washed three times with lysis buffer; eluted with 20 mM reduced glutathione; immunoblot with anti-GFP; only the target purified; remark: listed apart in the source
Molecule,binding [2],further results
GFP-Mupp-1 (from UniProt Q8VBX6 1-2055),–,binding [1]: no binding
"Mupp1, in mouse brain extract (from UniProt Q8VBX6 1-2055)",no binding,–
B1,binds,–
B2,–,binding [3]: binds weakly
